From publication PMC11789580
Results are given in words; binding and its absence hold for the method and conditions named. In cells and extracts the contact can be indirect. Some binding calls cover weakened binding; strength is not graded here. Where a sequence is shown, tags or fusion partners need not be part of it.

T1: MORF2-FLAG (Arabidopsis) (UniProt O22793)
T1 sequence: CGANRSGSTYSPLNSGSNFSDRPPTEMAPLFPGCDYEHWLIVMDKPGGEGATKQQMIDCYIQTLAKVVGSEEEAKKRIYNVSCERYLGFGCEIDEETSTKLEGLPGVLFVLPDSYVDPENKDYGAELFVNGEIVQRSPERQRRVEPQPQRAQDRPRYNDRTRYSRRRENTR

T2: MORF2-cLUC (in Arabidopsis protoplasts) (Arabidopsis) (UniProt O22793)
T2 sequence: T1 sequence

T3: MORF2-nLUC (Arabidopsis) (UniProt O22793)
T3 sequence: T1 sequence

T4: RPOTp-nLUC (Arabidopsis) (UniProt O24600)
T4 sequence: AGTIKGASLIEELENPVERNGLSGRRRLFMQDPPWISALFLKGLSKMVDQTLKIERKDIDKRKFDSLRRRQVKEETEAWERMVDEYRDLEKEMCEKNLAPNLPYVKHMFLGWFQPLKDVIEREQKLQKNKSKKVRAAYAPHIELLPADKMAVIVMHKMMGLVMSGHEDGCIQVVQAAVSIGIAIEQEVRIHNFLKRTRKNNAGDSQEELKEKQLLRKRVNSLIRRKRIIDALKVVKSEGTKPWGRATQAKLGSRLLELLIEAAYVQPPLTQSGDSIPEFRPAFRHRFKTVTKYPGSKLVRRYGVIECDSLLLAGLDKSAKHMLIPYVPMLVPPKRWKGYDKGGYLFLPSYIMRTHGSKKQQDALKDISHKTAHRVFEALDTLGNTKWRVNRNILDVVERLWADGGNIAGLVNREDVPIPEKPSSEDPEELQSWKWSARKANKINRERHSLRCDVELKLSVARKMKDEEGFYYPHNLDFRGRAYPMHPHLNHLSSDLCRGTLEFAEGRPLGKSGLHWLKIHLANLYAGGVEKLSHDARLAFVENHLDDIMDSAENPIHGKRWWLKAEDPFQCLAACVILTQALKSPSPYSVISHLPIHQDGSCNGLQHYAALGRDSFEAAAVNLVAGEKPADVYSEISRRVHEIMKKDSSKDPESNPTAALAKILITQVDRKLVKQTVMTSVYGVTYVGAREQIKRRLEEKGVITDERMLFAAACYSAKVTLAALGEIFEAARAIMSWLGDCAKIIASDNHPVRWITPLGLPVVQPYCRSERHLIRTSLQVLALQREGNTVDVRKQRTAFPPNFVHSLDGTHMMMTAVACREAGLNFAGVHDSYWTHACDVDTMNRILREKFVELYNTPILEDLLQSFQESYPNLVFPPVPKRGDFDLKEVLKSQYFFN

T5: RPOTp-FLAG (Arabidopsis) (UniProt O24600)
T5 sequence: T4 sequence

B1: MORF9-HA (protein, UniProt Q9LPZ1 59-232)
chain: AATVDSDYSSKRSNSNEQRETIMLPGCDYNHWLIVMEFPKDPAPSRDQMIDTYLNTLATVLGSMEEAKKNMYAFSTTTYTGFQCTIDEETSEKFKGLPGVLWVLPDSYIDVKNKDYGGDKYINGEIIPCTYPTYQPKQRNNTKYQSKRYERKRDGPPPPEQRKPRQEPAASDSS
B2: MORF2-HA (protein, UniProt O22793 49-219)
chain: T1 sequence
B3: MORF8-HA (protein, UniProt Q9LKA5 57-395)
chain: GGLVSVKGLSTQATSSSLNDPNPNWSNRPPKETILLDGCDFEHWLVVVEPPQGEPTRDEIIDSYIKTLAQIVGSEDEARMKIYSVSTRCYYAFGALVSEDLSHKLKELSNVRWVLPDSYLDVRNKDYGGEPFIDGKAVPYDPKYHEEWIRNNARANERNRRNDRPRNNDRSRNFERRRENMAGGPPPQRPPMGGPPPPPHIGGSAPPPPHMGGSAPPPPHMGQNYGPPPPNNMGGPRHPPPYGAPPQNNMGGPRPPQNYGGTPPPNYGGAPPANNMGGAPPPNYGGGPPPQYGAVPPPQYGGAPPQNNNYQQQGSGMQQPQYQNNYPPNRDGSGNPYQG
B4: RPOTp-GFP (enzyme, UniProt O24600 96-993)
chain: T4 sequence
B5: MORF2-nLUC (in Arabidopsis protoplasts) (protein, UniProt O22793 49-219)
chain: T1 sequence
B6: MORF8-nLUC (in Arabidopsis protoplasts) (protein, UniProt Q9LKA5 57-395)
chain: B3 chain
B7: MORF9-nLUC (in Arabidopsis protoplasts) (protein, UniProt Q9LPZ1 59-232)
chain: B1 chain
B8: MORF2-cLUC (protein, UniProt O22793 49-219)
chain: T1 sequence
B9: MORF8-cLUC (protein, UniProt Q9LKA5 57-395)
chain: B3 chain
B10: MORF9-cLUC (protein, UniProt Q9LPZ1 59-232)
chain: B1 chain
B11: RPOTp (co-expressed as third protein in the LCI assay of MORF dimerization) (enzyme, UniProt O24600 96-993)
chain: T4 sequence

What follows are binders tested against T1, MORF2-FLAG (Arabidopsis) (assay: co-IP; MORF2-FLAG with HA-tagged MORF proteins, with or without RPOTp-GFP; anti-FLAG magnetic beads; blots with anti-HA, anti-FLAG or anti-GFP).

Question: How did the binding turn out when B1 was run?
Answer: binds

Question: For B2, which binding is on record?
Answer: binds

Question: With B3 as the binder, how does the binding read?
Answer: binds

Question: Which binding does the source give for B4 here?
Answer: binds

Each binder was assayed against T2, MORF2-cLUC (in Arabidopsis protoplasts) (Arabidopsis) (assay: split reporter; firefly luciferase complementation with Renilla luciferase as internal control, one pUC19 plasmid (15 µg) in protoplasts of Col-0 and of the sca3-2 mutant, 16-20 h dark at 22 °C; ratio firefly/Renilla).

Question: Which binding does the source give for B5 here?
Answer: binds

Question: B6 was tested. Which binding did it give?
Answer: binds

Question: For B7, which binding is on record?
Answer: binds

These binders were tested against T3, MORF2-nLUC (Arabidopsis) (assay: split reporter; LCI of MORF2-nLUC with MORF-cLUC fusions in tobacco leaf epidermal cells, with RPOTp or with OZ1 (control) co-expressed / in the presence or absence of RPOTp).

Question: B8 was tested. Which binding did it give?
Answer: binds

Question: How did the binding turn out when B9 was run?
Answer: binds

Question: Which binding does the source give for B10 here?
Answer: binds

Question: With B11 as the binder, how does the binding read?
Answer: binds

The binders below were run against T4, RPOTp-nLUC (Arabidopsis) (assay: split reporter; firefly luciferase complementation imaging (LCI): nLUC and cLUC fusions co-infiltrated into 4-week-old Nicotiana benthamiana leaves, 3 days, 1 mM D-luciferin, CCD camera).

Question: For B8, which binding is on record?
Answer: binds

Question: For B9, which binding is on record?
Answer: binds

Question: With B10 as the binder, how does the binding read?
Answer: binds

These binders were tested against T5, RPOTp-FLAG (Arabidopsis) (assay: co-IP; RPOTp-FLAG and HA-tagged proteins co-infiltrated into Nicotiana benthamiana leaves; lysate on anti-FLAG M2 magnetic beads 2 h at 4 °C, eluted with 3xFLAG peptide; blots with anti-FLAG and anti-HA).

Question: Which binding does the source give for B1 here?
Answer: binds

Question: B2 was tested. Which binding did it give?
Answer: binds

Question: With B3 as the binder, how does the binding read?
Answer: binds
